Source: PubChem BioAssay AID504771 (Drosophila RNAi Screening Center, 2011)

Assay: 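Knock-downs that increase or decrease Htt-Q46 aggregates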 (follow-up of hits)
System: Drosophila S2 cells with copper-inducible mutant huntingtin exon 1 (46 glutamines)-eGFP
Knock-down reagent: long dsRNA against Drosophila genes, 250 ng dsRNA per well
Timing: 3 days of knock-down, then 2 days of copper induction before fixing
Challenge: copper sulfate at 400 µM to switch on Htt-Q46-eGFP expression
Detection: 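Per-well count, size and brightness of GFP aggregates from automated images, set against plate mean and SD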
Active means: 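Primary hit when aggregate count, size or brightness differed from plate mean by over 2 SD; called active only after clearing every validation step (off-target, repeat, second dsRNA, promoter counter-screen)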
Calls: active = confirmed modifier; inactive = primary candidate not confirmed
This is not the whole library: the list holds selected reagents. 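All genes were primary candidates; inactive means validation failed, not no effect; aggregate scores behind calls are not deposited.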 A number with no mark means an inactive call. The numbers tell different reagents against one gene apart. A plus sign joins genes that one reagent is predicted to hit. Reagent sequences are not shown.

Target gene	reagent	aggregation phenotype
CCT1	1	knock-down lowers aggregates (active)
Prosalpha5	1	knock-down lowers aggregates (active)
RpL32	1	knock-down lowers aggregates
CG13428	1	knock-down lowers aggregates
Tsen34	1	knock-down raises aggregates
IntS9	1	knock-down raises aggregates (active)
CG13623	1	knock-down lowers aggregates
Pits	1	knock-down lowers aggregates
CG13360	1	knock-down raises aggregates
eIF3a	1	knock-down lowers aggregates
RpS2	1	knock-down lowers aggregates
TfIIEalpha	1	knock-down lowers aggregates
Polr3E	1	knock-down lowers aggregates
RpL22	1	knock-down lowers aggregates
RpL22	2	knock-down lowers aggregates
Polr2L	1	knock-down lowers aggregates
RpL27	1	knock-down lowers aggregates
RpL31	1	knock-down lowers aggregates
Ge-1	1	knock-down raises aggregates
Hsc70-5	1	knock-down raises aggregates (active)
RpS3A	1	knock-down lowers aggregates
CG6094	1	knock-down lowers aggregates
hoip	1	knock-down lowers aggregates
pav	1	knock-down lowers aggregates
RpL17	1	knock-down lowers aggregates
Sf3b6	1	knock-down lowers aggregates
CG14641	1	knock-down lowers aggregates
Rpn10	1	knock-down lowers aggregates (active)
MED7	1	knock-down lowers aggregates
Prosbeta2	1	knock-down lowers aggregates
eIF2gamma	1	knock-down lowers aggregates
RpL35	1	knock-down lowers aggregates
Rpt2	1	knock-down lowers aggregates
ND-23	1	knock-down lowers aggregates
Diap1	1	knock-down lowers aggregates
RpL7A	1	knock-down lowers aggregates
MED4	1	knock-down lowers aggregates
RpL9	1	knock-down lowers aggregates
IntS12	1	knock-down raises aggregates
bonsai	1	knock-down lowers aggregates
lncRNA:sphinx + ATPsynF	1	knock-down lowers aggregates
xmas	1	knock-down lowers aggregates
Sec63	1	knock-down lowers aggregates
snoRNA:Or-CD12 + RpL28	1	knock-down lowers aggregates
Ns1	1	knock-down lowers aggregates
Chro	1	knock-down raises aggregates (active)
crn	1	knock-down lowers aggregates
crn	2	knock-down lowers aggregates
crn	3	knock-down lowers aggregates (active)
NELF-B	1	knock-down raises aggregates (active)
COX4	1	knock-down lowers aggregates
GlnRS	1	knock-down lowers aggregates
Hsp110	1	knock-down raises aggregates (active)
RpL39	1	knock-down lowers aggregates
heca	1	knock-down raises aggregates
heca	2	knock-down raises aggregates
Dsp1	1	knock-down lowers aggregates
Pp1-87B	1	knock-down lowers aggregates
Taf12	1	knock-down raises aggregates
CG33269	1	knock-down raises aggregates
Polr2H	1	knock-down lowers aggregates
Csl4	1	knock-down lowers aggregates
Cchl	1	knock-down lowers aggregates
CG32318 + Klp61F + Psf1	1	knock-down lowers aggregates
Cap-G	1	knock-down lowers aggregates
Bx42	1	knock-down lowers aggregates
Tnpo	1	knock-down lowers aggregates
RpS15Aa + RpS15Ab	1	knock-down lowers aggregates
RpS15Aa + RpS15Ab	2	knock-down lowers aggregates
eIF3b	1	knock-down lowers aggregates (active)
Nup153	1	knock-down lowers aggregates
Taf9	1	knock-down raises aggregates (active)
Nelf-A	1	knock-down may raise aggregates (active)
RpL10Ab	1	knock-down lowers aggregates
PCID2	1	knock-down lowers aggregates
IntS4	1	knock-down raises aggregates (active)
Cdc23	1	knock-down lowers aggregates
Prosalpha6	1	knock-down lowers aggregates
sip1	1	knock-down lowers aggregates
OtopLc	1	knock-down lowers aggregates
Pabp2	1	knock-down lowers aggregates
alphaTub85E	1	knock-down lowers aggregates
Tif-IA	1	knock-down lowers aggregates
Cdc16	1	knock-down lowers aggregates
SmE	1	knock-down lowers aggregates
Uba2	1	knock-down lowers aggregates (active)
SmB	1	knock-down lowers aggregates
Tti1	1	knock-down raises aggregates (active)
CG31229	1	knock-down lowers aggregates
Pp1-Y1	1	knock-down lowers aggregates
Rpn6	1	knock-down lowers aggregates
Pcf11	1	knock-down lowers aggregates
ssp	1	knock-down raises aggregates (active)
Sr-CI	1	knock-down raises aggregates
ZC3H3	1	knock-down lowers aggregates (active)
alphaTub84B	1	knock-down lowers aggregates
Nnp-1	1	knock-down lowers aggregates (active)
Sod1	1	knock-down raises aggregates
CG5274	1	knock-down raises aggregates (active)
scaf6	1	knock-down lowers aggregates
rin	1	knock-down raises aggregates (active)
CG4849	1	knock-down lowers aggregates
Srrm234	1	knock-down lowers aggregates
alphaTub67C	1	knock-down lowers aggregates
Brr2	1	knock-down lowers aggregates
tub	1	knock-down lowers aggregates
Taf4	1	knock-down raises aggregates (active)
Prosalpha7	1	knock-down lowers aggregates
Polr1D + DCTN6-p27	1	knock-down lowers aggregates
fand	1	knock-down lowers aggregates (active)
Polr2I	1	knock-down lowers aggregates
alphaCOP	1	knock-down lowers aggregates
fzy	1	knock-down lowers aggregates
vnc + CG42455	1	knock-down lowers aggregates (active)
Hmgcr	1	knock-down lowers aggregates (active)
PyK	1	knock-down lowers aggregates (active)
CG5861	1	knock-down lowers aggregates
RpL30	1	knock-down lowers aggregates
CG18810	1	knock-down lowers aggregates
ACC	1	knock-down lowers aggregates
omd	1	knock-down raises aggregates (active)
CG6066	1	knock-down lowers aggregates
DnaJ-1	1	knock-down raises aggregates (active)
srp	1	knock-down lowers aggregates
thr	1	knock-down lowers aggregates
l(2)05287	1	knock-down lowers aggregates
lqfR	1	knock-down raises aggregates
Rab26	1	knock-down raises aggregates
Polr2B	1	knock-down lowers aggregates
Ctr1A	1	knock-down lowers aggregates
APC10	1	knock-down lowers aggregates
mi	1	knock-down raises aggregates
Cdc27	1	knock-down lowers aggregates
CG11997	1	knock-down raises aggregates
tho2	1	knock-down lowers aggregates
DCP2	1	knock-down raises aggregates
MED16	1	knock-down lowers aggregates
Vha44	1	knock-down raises aggregates
Ski6	1	knock-down lowers aggregates
CG34386	1	knock-down raises aggregates

21 consecutive records already listed, for reference:
Target gene	reagent	aggregation phenotype
sip1	1	knock-down lowers aggregates
OtopLc	1	knock-down lowers aggregates
Pabp2	1	knock-down lowers aggregates
alphaTub85E	1	knock-down lowers aggregates
Tif-IA	1	knock-down lowers aggregates
Cdc16	1	knock-down lowers aggregates
SmE	1	knock-down lowers aggregates
Uba2	1	knock-down lowers aggregates (active)
SmB	1	knock-down lowers aggregates
Tti1	1	knock-down raises aggregates (active)
CG31229	1	knock-down lowers aggregates
Pp1-Y1	1	knock-down lowers aggregates
Rpn6	1	knock-down lowers aggregates
Pcf11	1	knock-down lowers aggregates
ssp	1	knock-down raises aggregates (active)
Sr-CI	1	knock-down raises aggregates
ZC3H3	1	knock-down lowers aggregates (active)
alphaTub84B	1	knock-down lowers aggregates
Nnp-1	1	knock-down lowers aggregates (active)
Sod1	1	knock-down raises aggregates
CG5274	1	knock-down raises aggregates (active)
